Drawing on paper PMC3102111, this text covers binding for 3 substances.

By UniProt entry, the sequences of proteins in these tests, tags left out. Where a name states a change or a piece, a line headed by the entry shows the natural chain unless it says otherwise.
UniProt Q05086: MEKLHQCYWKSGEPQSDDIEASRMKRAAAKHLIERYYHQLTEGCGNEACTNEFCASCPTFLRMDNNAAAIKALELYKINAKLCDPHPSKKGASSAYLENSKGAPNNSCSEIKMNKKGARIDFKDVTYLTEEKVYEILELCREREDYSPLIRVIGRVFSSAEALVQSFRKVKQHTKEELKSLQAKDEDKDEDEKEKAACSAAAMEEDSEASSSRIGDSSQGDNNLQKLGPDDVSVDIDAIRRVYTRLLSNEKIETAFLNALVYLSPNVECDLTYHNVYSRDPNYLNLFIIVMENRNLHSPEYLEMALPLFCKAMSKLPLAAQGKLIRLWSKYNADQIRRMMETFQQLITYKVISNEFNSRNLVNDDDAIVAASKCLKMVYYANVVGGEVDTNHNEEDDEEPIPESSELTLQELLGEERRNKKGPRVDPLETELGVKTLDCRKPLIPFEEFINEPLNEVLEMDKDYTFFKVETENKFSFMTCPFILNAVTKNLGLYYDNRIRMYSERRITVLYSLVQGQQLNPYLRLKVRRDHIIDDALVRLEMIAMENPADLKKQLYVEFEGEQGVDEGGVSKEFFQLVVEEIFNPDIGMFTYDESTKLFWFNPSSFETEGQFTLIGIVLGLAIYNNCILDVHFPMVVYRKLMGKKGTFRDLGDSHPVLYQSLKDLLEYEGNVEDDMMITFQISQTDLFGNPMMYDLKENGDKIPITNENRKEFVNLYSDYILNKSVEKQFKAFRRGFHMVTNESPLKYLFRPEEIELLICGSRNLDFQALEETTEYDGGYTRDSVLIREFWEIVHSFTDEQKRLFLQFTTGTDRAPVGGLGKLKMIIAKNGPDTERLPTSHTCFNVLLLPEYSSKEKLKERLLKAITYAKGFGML

Assay [1] has as its target ASPM (abnormal spindle-like, microcephaly-associated protein), endogenous (human (endogenous in human fetal kidney tissue)) (UniProt Q8IZT6). The experiment in a line: co-IP; endogenous proteins in human fetal kidney tissue lysate (1 mg, pre-cleared); primary antibody 3 hr at 4°C, protein-A/G agarose beads; IP buffer 20 mM HEPES pH 7.5, 150 mM NaCl, 1 mM EDTA, 0.5% NP-40; Western blot. Background: In western blotting, separated proteins are transferred to a membrane and probed.

For assay [2], the target named is UBE3A (ubiquitin protein ligase E3A), endogenous (human (endogenous in human fetal kidney tissue)) (UniProt Q05086). Described as above.
Assay [3] has as its target T1, C-terminal region of ASPM (CTR), amino acids 3,276–3,477, fused to the GAL4 DNA-binding domain (pGBKT7-CTR) (human) (UniProt Q8IZT6).
T1 sequence: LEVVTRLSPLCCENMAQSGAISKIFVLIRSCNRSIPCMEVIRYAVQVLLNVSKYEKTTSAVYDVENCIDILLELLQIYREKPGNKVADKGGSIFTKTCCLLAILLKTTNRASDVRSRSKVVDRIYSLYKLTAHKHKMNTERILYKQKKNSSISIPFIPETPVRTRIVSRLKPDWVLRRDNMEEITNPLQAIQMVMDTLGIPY
As to the kind of experiment: two-hybrid; … GAL4 Two-Hybrid System 3, S. cerevisiae AH109; growth on quadruple dropout medium (SD/-His/-Ade/-Leu/-Trp) and blue colour on X-α-gal plates (MEL1 reporter), 30°C, 3 to 4 days; bait in pGBKT7 (DNA-BD), prey in pACT2 (AD).

These are yes or no findings as the source states them, for the method shown. For part of these data: Binding seen in cells or lysates may run through a third protein. Some entries that bind do so weakly or less than the wild type. For part of these data: Tags and fused reporters may be left off the sequences shown.

Take “UBE3A (ubiquitin protein ligase E3A), endogenous (from UniProt Q05086 1-875)”: the binding entry in assay [1] is recorded as “binds”.
Turning to “ASPM (abnormal spindle-like, microcephaly-associated protein), endogenous (from UniProt Q8IZT6 1-3477)”, the binding result in assay [2] is “binds”.
“UBE3A fragment, amino acids 639–875, fused to the GAL4 activation domain (pACT2-UBE3A) (from UniProt Q05086 639-875) (domain or fragment)”: the binding result in assay [3] is “binds”.
